# Laboratory results published in patent publication US20190024099.
# Construct, isoform or probe ends are uncertain for at least one entry. Protein sequences can lack the tags named with them.
# Test system: T1, Rci shufflon recombinase
# T1 sequence: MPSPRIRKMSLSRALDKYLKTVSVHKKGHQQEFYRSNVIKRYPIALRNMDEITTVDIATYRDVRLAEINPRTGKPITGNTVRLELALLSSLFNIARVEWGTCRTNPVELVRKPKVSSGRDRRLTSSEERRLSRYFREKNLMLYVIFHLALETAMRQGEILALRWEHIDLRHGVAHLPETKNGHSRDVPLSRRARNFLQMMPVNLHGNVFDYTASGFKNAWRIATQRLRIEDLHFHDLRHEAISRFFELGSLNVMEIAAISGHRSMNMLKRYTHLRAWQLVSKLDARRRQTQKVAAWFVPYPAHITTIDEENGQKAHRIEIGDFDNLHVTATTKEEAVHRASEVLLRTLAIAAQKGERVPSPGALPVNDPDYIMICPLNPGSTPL
# Assay: activity in cells
# Conditions: S. venezuelae, 1 kb inter-site, probe qPCR averaged over time points, high variability, protein in cells, only the site is given
sequence,measurement,setting,value
GTGCCAATCCGGTACCTGG (double strand) [sfx recognition sequence b],activity on this sequence,"5 kb 24, 10 kb 26, SYBR method 1 kb 2",12 % flipped
GTGCCAATCCGGTCGGTGG (double strand) [sfx recognition sequence c],activity on this sequence,"5 kb 44, 10 kb 56, SYBR method 1 kb 33",33 % flipped
GTGCCAATCCGGTACTTGG (double strand) [sfx recognition sequence d],activity on this sequence,"5 kb 33, 10 kb 56, SYBR method 1 kb 0.01",78 % flipped
GTGCCAATCCGGTACGTGG (double strand) [sfx recognition sequence a],activity on this sequence,"5 kb 28, 10 kb 55, SYBR method 1 kb 2",50 % flipped
